Data as given in PubChem BioAssay AID1259308 (NCATS, 2017).
Purpose: 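Genes whose loss raises luciferase production in HEK293 cells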 (primary screen). Cells: human HEK293 embryonic kidney cells stably expressing firefly luciferase (HEK-CMV-Luc2-Hygro). Reagents: single siRNA against human genes, 0.8 pmol siRNA per well. Timing: 72 h. Read-out: 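Reporter luminescence and viable-cell signal on separate replicate plates, given as percent of non-targeting control and median/MAD z-scores, plus per-cell luciferase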. Direction: total luciferase, z-score: higher = more reporter protein produced. Call rule: 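An siRNA counts as active if its total luciferase robust z-score exceeds 3; genes with two or more such siRNAs out of three were retested with fresh siRNAs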. Calls: active = raised luciferase; inactive = no rise.
The whole screen tested about 59,000 reagents; shown is a random part of them. About 1,510 of them (2.6%) were called active. 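Calls use total luciferase alone and ignore viability, so some active siRNAs may act by altering cell number.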 Reagents against one gene are numbered here. Further read-outs or replicates are left out here.

What did the screen give for BCL7A (GeneID 605) #1?
total luciferase, z-score: 0.916; Outcome: inactive

What did the screen give for BCL7A (GeneID 605) #2?
total luciferase, z-score: 0.371; Outcome: inactive

With BCL7A (GeneID 605) #3, what does the deposit list?
total luciferase, z-score: -0.531; Outcome: inactive

What is on record for ARHGAP28 (GeneID 79822) #1?
total luciferase, z-score: 2.46; Outcome: inactive

What did the screen give for ARHGAP28 (GeneID 79822) #2?
total luciferase, z-score: -0.962; Outcome: inactive

For ARHGAP28 (GeneID 79822) #3, what was measured?
total luciferase, z-score: -1.18; Outcome: inactive

Laid out differently: entries from further up.
{"target gene": "BCL7A (GeneID 605)", "siRNA no.": 2, "total luciferase, z-score": 0.371, "Outcome": "inactive"}
{"target gene": "BCL7A (GeneID 605)", "siRNA no.": 3, "total luciferase, z-score": -0.531, "Outcome": "inactive"}

Next results follow:
What is on record for QKI (GeneID 9444) #1?
total luciferase, z-score: 0.213; Outcome: inactive

For QKI (GeneID 9444) #2, how do the results read?
total luciferase, z-score: 0.294; Outcome: inactive

Which result is listed for QKI (GeneID 9444) #3?
total luciferase, z-score: 2.06; Outcome: inactive

For MS4A7 (GeneID 58475) #1, what does the deposit list?
total luciferase, z-score: -1.11; Outcome: inactive

What did the screen give for MS4A7 (GeneID 58475) #2?
total luciferase, z-score: 2.11; Outcome: inactive

For MS4A7 (GeneID 58475) #3, how do the results read?
total luciferase, z-score: 0.845; Outcome: inactive
